These are yes or no findings as the source states them, for the method shown. Binding seen in cells or lysates may run through a third protein. Some binding calls cover weakened binding; strength is not graded here. For some assays here: Sequences can lack the tags named with a protein.
How the values were obtained:
Myc-RIG-I = target: T1, Myc-RIG-I (UniProt O95786); test: co-IP
T1 sequence: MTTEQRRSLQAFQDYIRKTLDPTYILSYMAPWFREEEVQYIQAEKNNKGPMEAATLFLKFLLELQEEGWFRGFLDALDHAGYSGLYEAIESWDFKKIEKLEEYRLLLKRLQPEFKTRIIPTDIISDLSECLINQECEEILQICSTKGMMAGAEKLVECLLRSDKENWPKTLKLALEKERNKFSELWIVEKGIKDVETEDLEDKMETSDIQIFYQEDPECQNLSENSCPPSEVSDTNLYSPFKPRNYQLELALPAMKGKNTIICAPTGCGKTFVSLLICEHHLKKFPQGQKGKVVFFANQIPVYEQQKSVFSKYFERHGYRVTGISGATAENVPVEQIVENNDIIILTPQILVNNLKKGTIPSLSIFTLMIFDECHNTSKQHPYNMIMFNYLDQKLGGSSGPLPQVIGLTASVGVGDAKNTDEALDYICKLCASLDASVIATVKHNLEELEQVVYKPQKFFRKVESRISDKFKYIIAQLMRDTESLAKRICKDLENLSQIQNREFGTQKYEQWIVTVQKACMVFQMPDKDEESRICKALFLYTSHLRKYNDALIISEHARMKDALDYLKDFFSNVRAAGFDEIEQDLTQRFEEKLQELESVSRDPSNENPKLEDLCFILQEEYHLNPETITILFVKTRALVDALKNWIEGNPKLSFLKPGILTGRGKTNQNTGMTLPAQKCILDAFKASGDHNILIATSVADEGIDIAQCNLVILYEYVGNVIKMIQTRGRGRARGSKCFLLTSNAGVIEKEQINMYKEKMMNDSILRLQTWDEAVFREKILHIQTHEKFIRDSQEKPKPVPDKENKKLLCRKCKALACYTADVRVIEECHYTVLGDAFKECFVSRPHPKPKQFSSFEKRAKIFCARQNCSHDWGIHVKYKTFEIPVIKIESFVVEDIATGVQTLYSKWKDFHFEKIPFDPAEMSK

Protein sequences, listed by entry. Tags and fused reporters are not part of them.
UniProt P62258: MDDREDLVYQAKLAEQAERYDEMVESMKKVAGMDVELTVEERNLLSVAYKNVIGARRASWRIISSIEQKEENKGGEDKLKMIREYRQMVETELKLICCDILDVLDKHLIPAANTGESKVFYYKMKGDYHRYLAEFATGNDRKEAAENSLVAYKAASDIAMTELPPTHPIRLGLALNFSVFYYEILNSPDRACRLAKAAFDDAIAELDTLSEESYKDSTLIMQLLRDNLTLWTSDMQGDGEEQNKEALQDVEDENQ
UniProt P62259: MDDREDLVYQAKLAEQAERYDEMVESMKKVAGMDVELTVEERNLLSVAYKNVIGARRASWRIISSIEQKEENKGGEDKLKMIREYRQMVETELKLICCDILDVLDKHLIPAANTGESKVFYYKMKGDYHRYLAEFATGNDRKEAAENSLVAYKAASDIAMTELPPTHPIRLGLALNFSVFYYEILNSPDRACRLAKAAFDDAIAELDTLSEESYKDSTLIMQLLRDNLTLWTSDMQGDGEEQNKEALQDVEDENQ

[1] = target: T2, endogenous RIG-I of MEFs (mouse (endogenous in MEFs)) (UniProt Q6Q899); test: co-IP
T2 sequence: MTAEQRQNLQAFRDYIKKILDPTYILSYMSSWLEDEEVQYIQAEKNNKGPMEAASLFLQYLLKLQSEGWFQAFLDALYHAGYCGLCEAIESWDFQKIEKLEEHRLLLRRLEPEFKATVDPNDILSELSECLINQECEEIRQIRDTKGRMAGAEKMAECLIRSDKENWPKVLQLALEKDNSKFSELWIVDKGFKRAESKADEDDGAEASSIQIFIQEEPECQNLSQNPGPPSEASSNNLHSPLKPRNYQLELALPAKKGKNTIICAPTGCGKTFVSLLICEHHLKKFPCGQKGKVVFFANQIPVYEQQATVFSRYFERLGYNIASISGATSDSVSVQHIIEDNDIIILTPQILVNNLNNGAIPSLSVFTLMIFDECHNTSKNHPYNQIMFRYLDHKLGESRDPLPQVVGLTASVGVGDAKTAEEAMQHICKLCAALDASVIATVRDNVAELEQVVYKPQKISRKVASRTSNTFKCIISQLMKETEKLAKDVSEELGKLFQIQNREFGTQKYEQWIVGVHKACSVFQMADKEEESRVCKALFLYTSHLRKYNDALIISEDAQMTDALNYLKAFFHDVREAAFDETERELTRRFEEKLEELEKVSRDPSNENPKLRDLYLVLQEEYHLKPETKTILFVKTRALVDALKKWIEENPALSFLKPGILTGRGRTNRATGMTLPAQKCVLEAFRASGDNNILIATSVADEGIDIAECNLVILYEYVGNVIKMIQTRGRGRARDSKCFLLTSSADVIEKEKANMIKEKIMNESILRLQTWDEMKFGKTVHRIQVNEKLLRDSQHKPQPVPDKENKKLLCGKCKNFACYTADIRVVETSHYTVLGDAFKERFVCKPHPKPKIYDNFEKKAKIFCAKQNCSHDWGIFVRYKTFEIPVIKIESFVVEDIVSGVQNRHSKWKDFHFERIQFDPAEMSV

Substance | binding (Myc-RIG-I) | binding [1]
endogenous 14-3-3ε of HEK-293T cells (from UniProt P62258 1-255) | binds | 
endogenous 14-3-3ε of MEFs (from UniProt P62259 1-255) |  | binds
